PubChem BioAssay AID1259425 | University of Nebraska Medical Center – 2018
Purpose: 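Seek colon cancer weak points whose silencing resembles KSR1 loss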 (primary screen). System: HCT116 human colon cancer cells. Reagent: siRNA pool against human genes, 50 nM siRNA. Measured: 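mRNA of six signature genes measured together by branched-DNA assay after 50 nM siRNA pool, blank removed, divided by geometric mean of two housekeeping genes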. Scale: BNIP3L mRNA: higher = more BNIP3L transcript after knockdown.
The whole screen tested about 14,000 reagents; this is a part drawn at random. Some reagents were tested in more than one well and are listed for each. Further read-outs or replicates are left out here. Not stated in the record: the time to read-out.

The opening 3 entries, ahead of the listing:
MAP1S → BNIP3L mRNA, set 1 = 0.145
PRR11 → BNIP3L mRNA, set 1 = 0.0404
TCEA1 → BNIP3L mRNA, set 1 = 0.0591

Main list, from the first entry:
MAP1S → BNIP3L mRNA, set 1 = 0.145
PRR11 → BNIP3L mRNA, set 1 = 0.0404
TCEA1 → BNIP3L mRNA, set 1 = 0.0591
SEMA4D → BNIP3L mRNA, set 1 = 0.105
MVD → BNIP3L mRNA, set 1 = 0.0572
DPAGT1 → BNIP3L mRNA, set 1 = 0.209
TRADD → BNIP3L mRNA, set 1 = 0.0821
ORC1 → BNIP3L mRNA, set 1 = 0.112
LBR → BNIP3L mRNA, set 1 = 0.0681
VPS29 → BNIP3L mRNA, set 1 = 1.57
CHP2 → BNIP3L mRNA, set 1 = 0.108
SPARC → BNIP3L mRNA, set 1 = 0.0851
WDR87 → BNIP3L mRNA, set 1 = 0.168
ARHGAP45 → BNIP3L mRNA, set 1 = 0.0609
LINC00158 → BNIP3L mRNA, set 1 = 0.1
DBNL → BNIP3L mRNA, set 1 = 0.107
DBNL → BNIP3L mRNA, set 1 = 0.0721
LCP1 → BNIP3L mRNA, set 1 = 0.0927
NME1 → BNIP3L mRNA, set 1 = 0.045
USO1 → BNIP3L mRNA, set 1 = 0.154
TRIM3 → BNIP3L mRNA, set 1 = 0.113
ADM → BNIP3L mRNA, set 1 = 0.16
PRAME → BNIP3L mRNA, set 1 = 0.0543
DMP1 → BNIP3L mRNA, set 1 = 0.171
DPYSL4 → BNIP3L mRNA, set 1 = 0.155
ASMTL-AS1 → BNIP3L mRNA, set 1 = 0.111
SLC25A24 → BNIP3L mRNA, set 1 = 0.178
ZNF627 → BNIP3L mRNA, set 1 = 0.137
IL17D → BNIP3L mRNA, set 1 = 0.128
CNPY3 → BNIP3L mRNA, set 1 = 0.0234
FCGR1A → BNIP3L mRNA, set 1 = 0.147
EIF3K → BNIP3L mRNA, set 1 = 0.0447
CPB1 → BNIP3L mRNA, set 1 = 0.214
HLA-DQA2 → BNIP3L mRNA, set 1 = 0.219
MAP1LC3B → BNIP3L mRNA, set 1 = 0.162
TRAPPC1 → BNIP3L mRNA, set 1 = -0.0563
